Assay results

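Genome-wide siRNA knockdown in TC32 Ewing sarcoma cells, comparing luciferase light from an NR0B1-promoter reporter with a CMV-promoter reporter 48 hours after transfection. Each siRNA was applied at 20 nM. A z-score of the log NR0B1-over-CMV signal, less the median of siRNAs with the same seed; more negative means a stronger specific loss of the NR0B1 reporter.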

This is part of the screen; most of the strongest results are not listed here. Sequences are the guide (antisense) strand, without overhang.

UACUAUUUCGCUUAGUGCC against FBXW9 gave seed-corrected z-score 0.1775.
ACAGUUUUCGAUCAUUUCG against GPR37 gave seed-corrected z-score 0.6353.
UUAGUUGUCCGUCCUGCUG against IVL gave seed-corrected z-score 0.7974.
UACUCUAGCAUCUUGAUCC against STRN4 gave seed-corrected z-score -0.2085.
UAGUGGACUGUUUACUUCC against TAF8 gave seed-corrected z-score 0.33.
UCUUGCAUGAGUGAAGAUG against GBP6 gave seed-corrected z-score -0.159.
UUCUUAGCAGAAUAGUGCC against RAPGEF5 gave seed-corrected z-score 0.5325.
ACUUAAUCCAUUAAACUGC against NSUN6 gave seed-corrected z-score 0.2001.
UUUGUUGUAAAUACGAGGG against CUL5 gave seed-corrected z-score -0.5679.
UCUUGCAAUAGAAGCCUCU against NR2F2-AS1 gave seed-corrected z-score -0.3337.
UCUACUGUUUCAUUCAUCU against CSF2 gave seed-corrected z-score 0.06112.
UCUGCGUAGACAAAGAGCA against CYYR1 gave seed-corrected z-score -0.2589.
UGGACUGACAUUAAGCUGC against TRMT5 gave seed-corrected z-score -0.3106.
AACCGAGUCAUCAAAAGUG against AFF2 gave seed-corrected z-score 0.005658.
AGAAGGUCUAACAAGGUCC against VPS37C gave seed-corrected z-score 1.249.
AGAUAGAUCACCAGGUUGU against SLC35A4 gave seed-corrected z-score -1.662.
UGUUUGACCACUCAGUUCC against FRMD5 gave seed-corrected z-score 0.113.
UGUCCUGUAAUUUUGUCUC against ELAVL4 gave seed-corrected z-score -0.2964.
UGUAUAUCAGCAGAGUCGC against DPY19L2P2 gave seed-corrected z-score -0.3375.
UUUCAUUUUUCUUGGAGCG against DYNLRB1 gave seed-corrected z-score 1.336.
UCUUAUACUGCUAUAGCUG against PTPRK gave seed-corrected z-score -1.3.
UGGGAUUACAAACACUUCC against ALPP gave seed-corrected z-score 0.02551.
UCUAGUAUAAAAAUCCAGU against GLO1 gave seed-corrected z-score -0.1934.
ACACUGAUCACAUCUAUAG against ZNF32 gave seed-corrected z-score -1.078.
UCGAUUAUAAAUGACACCC against EML5 gave seed-corrected z-score 0.4032.
AAAGGUAGUUGGGUGGUAG against KRTAP15-1 gave seed-corrected z-score -0.0293.
UAACCAUCUUUGCUAGCUG against WDR75 gave seed-corrected z-score 0.7851.
UGGUGGUCAAGACAAGUUC against DHX16 gave seed-corrected z-score -1.109.
UGGGUGAUAAGUCGUGUCU against SCNM1 gave seed-corrected z-score 0.5263.
UGCUGGUUCAGGAAGUGGU against FTH1P18 gave seed-corrected z-score -1.517.
AAAGCAAUGACGAAGAUCA against ANKRD46 gave seed-corrected z-score 0.3252.
UAGUAGAUAAUCAAUGAAG against ANKRD22 gave seed-corrected z-score -0.416.
AUAUGGGUUACUCAGGUGG against PBX2 gave seed-corrected z-score -0.4582.
UCGGUUUUGACAUGGGUGG against PTGS2 gave seed-corrected z-score -1.074.
UGAUCCUCAUCCGUGAACC against GIMAP6 gave seed-corrected z-score 0.1244.
AUAAUAGAGCGGGAUGGUC against BMS1P15 gave seed-corrected z-score -0.2537.
AAUAAAACCUUGCCUAUUC against VAX1 gave seed-corrected z-score -0.5269.
UCGCAAACCACAUUCUUCC against GFOD2 gave seed-corrected z-score -0.2708.
UAAGGAAGGAAGUCGAGAG against PLAC9 gave seed-corrected z-score 0.7556.
UUCCGAGUGAGAAUGAAGG against IGBP1P2 gave seed-corrected z-score -0.6538.
UAAAUGUCAUCCAUAAGCC against NDUFS2 gave seed-corrected z-score 0.0811.
UUCAUGACCCGGGUUGCUG against KIRREL gave seed-corrected z-score -0.06329.
AAUCCAUUAAGGAUAACUC against SIX4 gave seed-corrected z-score 0.8829.
AACCUUCAAGGACUCGUUC against RRP1 gave seed-corrected z-score 0.7408.
UGAGUAAUAAUUCAACAUC against LYRM7 gave seed-corrected z-score -0.7454.
UCUCGAACCAUUUCCUGUC against MUC3B gave seed-corrected z-score -0.04007.
UACGUGUACUUGCCCAUCA against KCNIP2 gave seed-corrected z-score -0.1149.
AUUCGUUUCACUUGACUUC against SAMD7 gave seed-corrected z-score 0.8389.
UACGUUUUGGGUUGGUCAC against ENO2 gave seed-corrected z-score -0.7398.
UAUAGCUGCACCAAUAGGG against HSPA14 gave seed-corrected z-score -1.757.
AUUCUAUACAUGGAUCUGG against CDC123 gave seed-corrected z-score 0.9264.
AACUGGAACUGUUCCUCGG against MFAP2 gave seed-corrected z-score -0.305.
UGUUUUCCCAGUAAUAUUC against MIR2052HG gave seed-corrected z-score 2.066.

Once more, the final 4:

* UAUAGCUGCACCAAUAGGG against HSPA14 : seed-corrected z-score -1.757
* AUUCUAUACAUGGAUCUGG against CDC123 : seed-corrected z-score 0.9264
* AACUGGAACUGUUCCUCGG against MFAP2 : seed-corrected z-score -0.305
* UGUUUUCCCAGUAAUAUUC against MIR2052HG : seed-corrected z-score 2.066

Data taken from PubChem BioAssay AID1159506, deposited by NCATS (2015).